This assay in a line: qHTS Assay to Find Inhibitors of Chronic Active B-Cell Receptor Signaling. Particulars: ABC-DLBCL IkBa-CBG/CBR reporter, luminescence ratio (green luciferase fused to IkBa over red control in TMD8 lymphoma cells), 4 h. The gist of the method: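 TMD8 ABC-DLBCL cells carrying doxycycline-inducible green luciferase fused to IkappaBalpha plus unfused red luciferase were exposed to compounds (up to 46 uM) for 4 hrs at 37C. Activity came from the overlap-corrected green/red luminescence ratio.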
In general terms: qHTS replaces the single test concentration by a dilution series.

Setting [1] is: measured here: CBR red luminescence, cell number.

This is one part of the list. These are further read-outs of the screen, such as a control signal, another cell line or another target. No call is given for them. Compounds called inactive in the main read-out are mostly missing here. Potencies come from curve fits of mixed quality, noted in brackets.

For the compound `O=C(Nc1ccccc1-c1ccccc1)C1CCC1`, under setting [1], the AC50 was 0.708 µM [rising, full curve, poor fit].

In the case of `COc1ccccc1NC(=O)COc1ccc2ccccc2c1`, the AC50 under setting [1] was 15.8 µM [falling, partial curve, poor fit].

For `Cc1ccc(-c2nnc(Nc3ccc(Br)cc3)c3ccccc23)cc1S(=O)(=O)N1CCOCC1`, the AC50 under setting [1] was 3.55 µM [falling, full curve].

Take `CSCCC(NS(=O)(=O)c1ccc(Cl)cc1)C(=O)OCC(=O)c1ccc(F)cc1` (stereo not drawn): the AC50 under setting [1] is 0.13 µM [rising, full curve].

Take `COc1cc(-c2nc(-c3ccc(NC(=O)c4ccc(Br)o4)cc3)no2)cc(OC)c1OC`: the AC50 under setting [1] was 25.9 µM [rising, partial curve, poor fit].

Turning to `c1ccc(Cc2nnc(Sc3ccccc3)c3ccccc23)cc1`, the AC50 under setting [1] was 14.1 µM [falling, partial curve].

Take `CSc1cccc(NC(=O)c2ccccn2)c1`: the AC50 under setting [1] is 35.5 µM [falling, single point].

In the case of `O=C(Nc1cccc(NC(=O)c2ccco2)c1)c1ccc2c(c1)OCCO2`, the AC50 under setting [1] is 7.08 µM [falling, partial curve].

Consider `O=C(CN1C(=O)/C(=C\c2cccc(Cl)c2)Sc2ccccc21)NCCCN1CCOCC1`, for which the AC50 under setting [1] is 0.794 µM [falling, full curve, poor fit].

For the compound `COc1ccc(CCNC(=O)CSc2nc3cc(Cl)ccc3o2)cc1OC`, the AC50 under setting [1] is 6.51 µM [falling, single point].

`O=C(CSc1nc2ccccc2c(=O)[nH]1)c1ccc(O)cc1O`: the AC50 under setting [1] was 35.5 µM [falling, single point].

Consider `C[C@]12CC[C@@H]3c4ccc(OC(=O)c5ccccc5)cc4CC[C@H]3[C@@H]1CC[C@@H]2O`, for which, under setting [1], the AC50 is 0.00517 µM [rising, full curve, poor fit].

For `Cc1cc(C)cc(OCC(=O)NC2=NCCS2)c1`, the AC50 under setting [1] was 2.91 µM [rising, single point] and the AC50 (measured here: IkBa-CBG green luminescence) is 3.66 µM [falling, partial curve, poor fit].

On to `Cc1ccc(-c2nnc(N3CCCCC3)c3ccccc23)cc1S(=O)(=O)NCC1CCCO1` (stereo not drawn), for which the AC50 under setting [1] is 29.1 µM [falling, single point].

As to `CN(CC(=O)Nc1ccc(Cl)c(C(F)(F)F)c1)C(=O)COC(=O)C1CC2CCCC(C1)C2=O` (stereo not drawn), the AC50 under setting [1] is 0.13 µM [rising, full curve, poor fit].

Consider `O=C(NNc1nc2ccccc2o1)c1ccccc1`, for which the AC50 under setting [1] is 3.98 µM [falling, partial curve, poor fit].

Take `CC1(C)C(=O)N(OCc2ccccc2)C(C)(C)C(=O)N1OCc1ccccc1`: the AC50 under setting [1] is 0.103 µM [falling, full curve, poor fit].

One may read the AC50 as the concentration giving half of the maximal activity seen.

Values taken from PubChem BioAssay AID493014 (National Center for Advancing Translational Sciences (NCATS), 2011).
